Source: paper PMC9522268

Chains of the proteins cited; added tags and fusions are not shown. Lines headed by an entry give the natural chain unless they say otherwise; changes in a name come on top.
UniProt Q5PNS9: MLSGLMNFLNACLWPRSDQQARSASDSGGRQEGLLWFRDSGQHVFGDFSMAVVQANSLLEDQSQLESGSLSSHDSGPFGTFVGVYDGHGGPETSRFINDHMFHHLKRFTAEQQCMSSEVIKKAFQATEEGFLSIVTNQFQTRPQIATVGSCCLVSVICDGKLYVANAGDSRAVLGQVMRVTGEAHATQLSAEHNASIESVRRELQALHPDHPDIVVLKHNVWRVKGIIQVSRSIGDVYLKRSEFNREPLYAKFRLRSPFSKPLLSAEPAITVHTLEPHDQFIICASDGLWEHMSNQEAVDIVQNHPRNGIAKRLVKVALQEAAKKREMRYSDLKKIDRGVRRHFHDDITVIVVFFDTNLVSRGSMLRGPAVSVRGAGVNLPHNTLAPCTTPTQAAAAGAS

T1: SAUR63:YFP:HA fusion protein (Arabidopsis thaliana) (UniProt F4I1H5)
T1 sequence: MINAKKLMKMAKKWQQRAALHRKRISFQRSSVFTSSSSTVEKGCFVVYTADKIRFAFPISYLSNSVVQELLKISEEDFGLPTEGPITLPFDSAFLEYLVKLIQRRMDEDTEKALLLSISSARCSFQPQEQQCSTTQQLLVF


Tests used:
[1] = biological target: T1, SAUR63:YFP:HA fusion protein (Arabidopsis thaliana); assay: co-IP; microsomes of pooled F2 Arabidopsis seedlings solubilized in PBS + 1.5% Triton X-100; α-HA magnetic beads, 2h at 4°C; washed with PBS + 1% Triton-X-100; blots with α-GFP and α-HA
[2] = biological target: PP2C.D5 phosphatase split-YFP fusion for BiFC (Arabidopsis thaliana) (UniProt Q5PNS9); assay: split reporter; BiFC with YFP^N and YFP^C fusions in transiently transformed Nicotiana benthamiana leaf cells; confocal imaging of reconstituted yellow fluorescence

Molecule	binding [1]	binding [2]
PP2C.D5:GFP fusion protein (Arabidopsis thaliana) (enzyme)	binds	–
SAUR63 (Small Auxin Up RNA 63) split-YFP fusion for BiFC (protein, UniProt F4I1H5 1-141) MINAKKLMKMAKKWQQRAALHRKRISFQRSSVFTSSSSTVEKGCFVVYTADKIRFAFPISYLSNSVVQELLKISEEDFGLPTEGPITLPFDSAFLEYLVKLIQRRMDEDTEKALLLSISSARCSFQPQEQQCSTTQQLLVF	–	binds

Results are given in words; binding and its absence hold for the method and conditions named. In cells and extracts the contact can be indirect. Binding calls can cover weak binding; strength is not graded here. Sequences can lack the tags named with a protein.
